PubChem BioAssay AID1508597 – Cure First – 2020

Purpose: 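Knock-downs altering ovarian cancer cell survival with or without PARP inhibitor rucaparib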 (primary screen)
Cells: human ovarian carcinoma lines grown from tumours: OCI-P5x (papillary serous) and OCI-C5x (clear cell)
Reagent: siRNA pool against human genes, 1.25 pmol siRNA per well
Duration: 72 h or 96 h, depending on the cell culture
Challenge: rucaparib 20 µM (about IC30) or vehicle, present until read-out
Read-out: 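Luminescent ATP-based viability assay read 72 or 96 h after transfection, depending on culture, given as normalised percent viability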
Reading the numbers: viability, normalised: higher = more viable cells remaining
Hit rule: 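Active when normalised viability falls below 80 percent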
Meaning of the calls: active = viability under 80%; inactive = viability 80% or more
This is a random part of about 2,100 reagents. 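Calls flag viability under 80% in either arm, not effects specific to rucaparib; the reference for percent is not stated.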 Unmarked entries are inactive. Not given: the 100% reference.

no.	target	rucaparib or vehicle	cell line	technical replicate	viability, normalised (%)
1	PRKX	Rucaparib	OCI-C5x (clear cell)	1	58.3 (active)
2	PRKX	Rucaparib	OCI-C5x (clear cell)	2	58.3 (active)
3	PRKX	Rucaparib	OCI-C5x (clear cell)	3	45 (active)
4	PRKX	Rucaparib	OCI-P5x (serous)	1	119
5	PRKX	Rucaparib	OCI-P5x (serous)	2	117
6	PRKX	Rucaparib	OCI-P5x (serous)	3	98
7	PRKX	Vehicle	OCI-C5x (clear cell)	1	77.1 (active)
8	PRKX	Vehicle	OCI-C5x (clear cell)	2	68.9 (active)
9	PRKX	Vehicle	OCI-C5x (clear cell)	3	64.3 (active)
10	PRKX	Vehicle	OCI-P5x (serous)	1	89.2
11	PRKX	Vehicle	OCI-P5x (serous)	2	79 (active)
12	PRKX	Vehicle	OCI-P5x (serous)	3	84.8
13	MIS18BP1	Rucaparib	OCI-C5x (clear cell)	1	51.8 (active)
14	MIS18BP1	Rucaparib	OCI-C5x (clear cell)	2	51.5 (active)
15	MIS18BP1	Rucaparib	OCI-C5x (clear cell)	3	34.7 (active)
16	MIS18BP1	Rucaparib	OCI-P5x (serous)	1	76.2 (active)
17	MIS18BP1	Rucaparib	OCI-P5x (serous)	2	85.2
18	MIS18BP1	Rucaparib	OCI-P5x (serous)	3	82.5
19	MIS18BP1	Vehicle	OCI-C5x (clear cell)	1	45.7 (active)
20	MIS18BP1	Vehicle	OCI-C5x (clear cell)	2	39.4 (active)
21	MIS18BP1	Vehicle	OCI-C5x (clear cell)	3	43.2 (active)
22	MIS18BP1	Vehicle	OCI-P5x (serous)	1	55.9 (active)
23	MIS18BP1	Vehicle	OCI-P5x (serous)	2	89.5
24	MIS18BP1	Vehicle	OCI-P5x (serous)	3	138
25	MTREX	Rucaparib	OCI-C5x (clear cell)	1	46 (active)
26	MTREX	Rucaparib	OCI-C5x (clear cell)	2	30.4 (active)
27	MTREX	Rucaparib	OCI-C5x (clear cell)	3	41 (active)
28	MTREX	Rucaparib	OCI-P5x (serous)	1	48.2 (active)
29	MTREX	Rucaparib	OCI-P5x (serous)	2	57.3 (active)
30	MTREX	Rucaparib	OCI-P5x (serous)	3	52.4 (active)
31	MTREX	Vehicle	OCI-C5x (clear cell)	1	39.7 (active)
32	MTREX	Vehicle	OCI-C5x (clear cell)	2	39.6 (active)
33	MTREX	Vehicle	OCI-C5x (clear cell)	3	23.4 (active)
34	MTREX	Vehicle	OCI-P5x (serous)	1	55.4 (active)
35	MTREX	Vehicle	OCI-P5x (serous)	2	61 (active)
36	MTREX	Vehicle	OCI-P5x (serous)	3	66.8 (active)
37	RERE	Rucaparib	OCI-C5x (clear cell)	1	53.2 (active)
38	RERE	Rucaparib	OCI-C5x (clear cell)	2	49.1 (active)
39	RERE	Rucaparib	OCI-C5x (clear cell)	3	49 (active)
40	RERE	Rucaparib	OCI-P5x (serous)	1	46.3 (active)
41	RERE	Rucaparib	OCI-P5x (serous)	2	49.8 (active)
42	RERE	Rucaparib	OCI-P5x (serous)	3	51.1 (active)
43	RERE	Vehicle	OCI-C5x (clear cell)	1	48.2 (active)
44	RERE	Vehicle	OCI-C5x (clear cell)	2	40.3 (active)
45	RERE	Vehicle	OCI-C5x (clear cell)	3	52.7 (active)
46	RERE	Vehicle	OCI-P5x (serous)	1	63.8 (active)
47	RERE	Vehicle	OCI-P5x (serous)	2	64.3 (active)
48	RERE	Vehicle	OCI-P5x (serous)	3	67 (active)
